Data: article PMC9045721
These are yes or no findings as the source states them, for the method shown. Some entries that bind do so weakly or less than the wild type. Where a sequence is shown, tags or fusion partners need not be part of it.

By UniProt entry, the sequences of proteins in these tests, tags left out. Where a name states a change or a piece, a line headed by the entry shows the natural chain unless it says otherwise.
UniProt Q9HC16: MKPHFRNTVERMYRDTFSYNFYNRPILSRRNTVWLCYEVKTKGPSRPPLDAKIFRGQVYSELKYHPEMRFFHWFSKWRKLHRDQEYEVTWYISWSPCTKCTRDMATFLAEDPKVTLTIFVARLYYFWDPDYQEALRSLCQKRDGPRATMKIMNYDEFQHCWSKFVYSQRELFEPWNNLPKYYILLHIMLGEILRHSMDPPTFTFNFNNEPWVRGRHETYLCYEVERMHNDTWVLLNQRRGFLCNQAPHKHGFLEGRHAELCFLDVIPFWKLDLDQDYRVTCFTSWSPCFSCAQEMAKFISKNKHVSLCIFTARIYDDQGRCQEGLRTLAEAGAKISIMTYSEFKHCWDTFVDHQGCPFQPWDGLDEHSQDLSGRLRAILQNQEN
UniProt P31941: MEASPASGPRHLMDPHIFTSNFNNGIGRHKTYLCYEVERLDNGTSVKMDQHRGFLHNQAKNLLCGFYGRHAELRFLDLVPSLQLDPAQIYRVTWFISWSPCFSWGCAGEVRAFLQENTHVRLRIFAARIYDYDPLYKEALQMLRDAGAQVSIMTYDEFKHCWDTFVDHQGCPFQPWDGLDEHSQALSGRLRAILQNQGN

Assays:
[1] = target: A3G (1-384)-mycHis (human) (UniProt Q9HC16); test: BLI; Octet RED; A3-mycHis proteins loaded on Ni-NTA biosensors (12.5 ug/ml A3Bctd and A3A, 8 ug/ml A3G); MBP-BORF2 200 to 6.25 nM; 20 mM tris-HCl (pH 8), 300 mM NaCl; 30°C; association 1200 s, dissociation 1800 s; 1:2 binding model; both purified
[2] = target: A3A (1-199)-mycHis (human) (UniProt P31941); test: as above

B1: MBP-BORF2 (1 to 826) (enzyme, UniProt P03190 1-826)
chain: MATTSHVEHELLSKLIDELKVKANSDPEADVLAGRLLHRLKAESVTHTVAEYLEVFSDKFYDEEFFQMHRDELETRVSAFAQSPAYERIVSSGYLSALRYYDTYLYVGRSGKQESVQHFYMRLAGFCASTTCLYAGLRAALQRARPEIESDMEVFDYYFEHLTSQTVCCSTPFMRFAGVENSTLASCILTTPDLSSEWDVTQALYRHLGRYLFQRAGVGVGVTGAGQDGKHISLLMRMINSHVEYHNYGCKRPVSVAAYMEPWHSQIFKFLETKLPENHERCPGIFTGLFVPELFFKLFRDTPWSDWYLFDPKDAGDLERLYGEEFEREYYRLVTAGKFCGRVSIKSLMFSIVNCAVKAGSPFILLKEACNAHFWRDLQGEAMNAANLCAEVLQPSRKSVATCNLANICLPRCLVNAPLAVRAQRADTQGDELLLALPRLSVTLPGEGAVGDGFSLARLRDATQCATFVVACSILQGSPTYDSRDMASMGLGVQGLADVFADLGWQYTDPPSRSLNKEIFEHMYFTALCTSSLIGLHTRKIFPGFKQSKYAGGWFHWHDWAGTDLSIPREIWSRLSERIVRDGLFNSQFIALMPTSGCAQVTGCSDAFYPFYANASTKVTNKEEALRPNRSFWRHVRLDDREALNLVGGRVSCLPEALRQRYLRFQTAFDYNQEDLIQMSRDRAPFVDQSQSHSLFLREEDAARASTLANLLVRSYELGLKTIMYYCRIEKAADLGVMECKASAALSVPREEQNERSPAEQMPPRPMEPAQVAGPVDIMSKGPGEGPGGWCVPGGLEVCYKYRQLFSEDDLLETDGFTERACESCQ
[1]
  binding: binds weakly
[2]
  binding: binds weakly
